Consider one molecule from US20030036505A1.

Chains of the proteins cited; added tags and fusions are not shown.
UniProt Q60631: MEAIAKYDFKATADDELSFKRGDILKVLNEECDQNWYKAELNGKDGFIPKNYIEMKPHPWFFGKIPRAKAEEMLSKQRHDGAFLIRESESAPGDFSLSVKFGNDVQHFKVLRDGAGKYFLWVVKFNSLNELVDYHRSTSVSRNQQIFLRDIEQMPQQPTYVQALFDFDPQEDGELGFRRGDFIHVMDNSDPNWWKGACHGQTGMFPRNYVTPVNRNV

The target in the test is Grb2 (25 kDa Grb2 protein) (murine (endogenous in murine FD-Fms cells)) (UniProt Q60631). The experiment in a line: GST pull-down from lysates of unstimulated or M-CSF-stimulated FD-Fms cells, anti-Grb2 immunoblot. (In general: Immunoblotting shows a protein as a band on a membrane.)

Results are given in words; binding and its absence hold for the method and conditions named. In cells and extracts the contact can be indirect. Some entries that bind do so weakly or less than the wild type. Tags and fused reporters may be left off the sequences shown.

B1: GST fusion with the proline-rich domain of Gab3 (protein, murine, UniProt Q8BSM5 396-458, looked up, not shown: a dimerising Fc or GST)
chain: VPMSPKGTASELRPHCSQDDYIPMSSSMLPELPADLEPPPVNRNLKPQRKSRPPPLDSRNLST
Turning to B1, the binding entry is on record as “binds”.
